Patent publication EP1027067B1, “USE OF SUBSTANCES HAVING OXYTOCIN ACTIVITY FOR THE PREPARATION OF MEDICAMENTS FOR THE TREATMENT OF AFFECTIVE PAIN SYNDROMES” (EntreTech Medical AB, priority 1997, dated 2004)
At least one peptide structure holds a part that was inferred or is arguable (an end, a ring closure or a residue).

How the values were obtained:
[1] = tested on: central α2-receptors; assay: Administration of α2-agonist clonidine to oxytocin treated rats (sedation); type: in vivo; conditions: clonidine 100 µg/kg s.c. 9 days after the end of the oxytocin treatment period; compared with saline-treated controls
[2] = tested on: rats; conditions: s.c. administration; effect can be reversed by naloxone; cited from earlier work
[3] = tested on: sensory aspects of IBS pain; conditions: interpreted as modulation of nociception; cited from earlier work
[4] = tested on: children with a recurrent abdominal pain syndrome; assay: Clinical study on RAP children (nasal spray); type: in vivo
[5] = tested on: somatosensory evoked potentials (SEP); assay: Somatosensory evoked potentials (SEP) after nociceptive stimulation; type: in vivo, rats; conditions: nociceptive stimulation of skin, muscle and viscera; oxytocin subcutaneously, intravenously or intrathecally in doses previously shown to relieve nociceptive behaviour
[6] = tested on: fibromyalgia patients; assay: Clinical study on fibromyalgia patients (randomized cross-over pilot, visual analogue scales); type: in vivo; conditions: oxytocin (Syntocinon, Sandoz) 10 IU daily for 5 days, nasal; pain, ache-discomfort and fatigue on visual analogue scales 0 to 100; saline control 2 of 12

In the case of `CC[C@H](C)[C@@H]1NC(=O)[C@H](Cc2ccc(O)cc2)NC(=O)[C@@H](N)CSSC[C@@H](C(=O)N2CCC[C@H]2C(=O)N[C@@H](CC(C)C)C(=O)NCC(N)=O)NC(=O)[C@H](CC(N)=O)NC(=O)[C@H](CCC(N)=O)NC1=O` [oxytocin], the “sedation after clonidine injection” value [1] is given as “a significant sedation was again observed”, the anti-nociceptive effect [2] is given as “An anti-nociceptive effect” and the withdrawal latencies [3] is given as “prolongs the withdrawal latencies”. For the same compound, the “effect on general condition and pain” value ([4]; 3 children aged ten, 2 x 8 IU daily in the morning for 3-5 days, Syntocinon nasal spray) was “A positive effect of the general condition and reduced pain”, the “time until the pain disappeared after administration” value ([4]; one case of the 3 children, nasal spray) was “instantly or within minutes” and the “effect on SEPs” value [5] was “did not effect the SEPs”. For the same compound, the “patients reporting a significant, that is more than 50%, alleviation of their symptoms” value [6] was 7 of 12.
